Test results taken from PMC10392139.
No constants are given. Whether binding was seen depends on the method and setting. In cells and extracts the contact can be indirect. Some results given as binding are weak or reduced against the parent protein; the word gives no strength.

Protein sequences, listed by entry. Tags and fused reporters are not part of them. Residues count along the entry.
UniProt P17931: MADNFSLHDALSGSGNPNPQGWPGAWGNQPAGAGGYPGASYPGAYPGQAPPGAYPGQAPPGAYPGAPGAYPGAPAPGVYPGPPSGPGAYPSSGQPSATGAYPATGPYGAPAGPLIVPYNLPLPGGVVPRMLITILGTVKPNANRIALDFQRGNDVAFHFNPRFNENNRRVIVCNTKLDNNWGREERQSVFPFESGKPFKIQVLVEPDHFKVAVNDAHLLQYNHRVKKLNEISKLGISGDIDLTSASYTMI
UniProt P09758, residues 27-323: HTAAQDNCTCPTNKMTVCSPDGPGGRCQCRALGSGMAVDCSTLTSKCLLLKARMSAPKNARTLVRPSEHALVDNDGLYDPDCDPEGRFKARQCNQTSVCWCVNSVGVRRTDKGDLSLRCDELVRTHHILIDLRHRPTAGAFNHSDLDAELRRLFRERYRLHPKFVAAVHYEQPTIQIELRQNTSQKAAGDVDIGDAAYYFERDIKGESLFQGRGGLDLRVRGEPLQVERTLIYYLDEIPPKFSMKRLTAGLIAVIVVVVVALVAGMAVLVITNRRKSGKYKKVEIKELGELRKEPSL
UniProt Q9NQB0: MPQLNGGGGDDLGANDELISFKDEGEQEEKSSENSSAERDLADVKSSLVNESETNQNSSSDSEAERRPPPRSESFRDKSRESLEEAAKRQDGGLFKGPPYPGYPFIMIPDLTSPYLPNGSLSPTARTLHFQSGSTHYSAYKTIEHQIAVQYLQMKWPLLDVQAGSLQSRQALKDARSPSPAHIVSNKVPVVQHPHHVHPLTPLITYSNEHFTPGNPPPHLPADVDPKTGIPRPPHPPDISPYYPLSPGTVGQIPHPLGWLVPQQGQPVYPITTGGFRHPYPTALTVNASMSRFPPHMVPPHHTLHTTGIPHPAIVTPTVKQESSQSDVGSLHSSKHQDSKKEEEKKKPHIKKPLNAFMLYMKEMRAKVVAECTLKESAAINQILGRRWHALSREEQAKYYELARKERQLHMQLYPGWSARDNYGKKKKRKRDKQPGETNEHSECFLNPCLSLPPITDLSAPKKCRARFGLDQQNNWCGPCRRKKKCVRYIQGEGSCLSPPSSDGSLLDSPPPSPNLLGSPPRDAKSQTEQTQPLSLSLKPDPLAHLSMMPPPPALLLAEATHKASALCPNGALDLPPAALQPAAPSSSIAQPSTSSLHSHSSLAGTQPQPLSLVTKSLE

Experiments:
galectin-3 = galectin-3 (UniProt P17931); assay: pull-down; galectin-3-Sepharose incubated with cell lysates (HCT116 Trop-2 transfectant, MCF-7, DU145) at 4 °C for 3 h in the absence of lactose; washed with PBS; immunoblot for Trop-2; only the target purified
[1] = biological target: FLAG- and HA-tagged wild-type Trop-2 (UniProt P09758); assay: co-IP; immunoprecipitates from lysates of WT-HA HCT116 cells with anti-HA-tag antibodies; immunoblot for β-catenin and TCF4

binding (galectin-3) | binding [1] | Substance
binds | – | FLAG- and HA-tagged wild-type Trop-2 (from UniProt P09758 27-323)
binds | – | Trop-2 expressed in MCF-7 cells and DU145 cells (from UniProt P09758 27-323)
– | binds | transcription factor 4 (TCF4) (from UniProt Q9NQB0 1-619)
